± gives the standard deviation of the averaged measurements. The reference is the same well before dosing, and untreated signal decays as well.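 Labels refer to human fibroblasts, largely primary: uterine (C12385, HUF), lung (H6013), bone (Hs27A), adrenal (HADF), skin (WS1), plus mammary HMF and breast cancer-associated Hs343T. Cancer lines are basal-like or mesenchymal-like triple-negative breast cancer. The paper counts as hits responses shifting over 3x the replicate standard deviation. The tissue of the other fibroblasts is not given here.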
System: MDAMB468
Assay: relative JC-1 red fluorescence (viability) vs pre-drug, coculture with fibroblast (fraction); higher = more viable cancer cells
Protocol: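 JC-1 labelled TNBC cells cocultured 1:1 (1,500 cells each) with CellTrace Violet stained primary or stromal fibroblasts in 384-well plates in FluoroBrite medium, treated with one of 42 anticancer drugs at 0.1, 1, 10 or 100 uM. JC-1 red fluorescence (mitochondrial integrity in cancer cells only) was read by plate reader every 8 h for 72 h. Values are normalised to each well's pre-drug value. The stock of one drug was tenfold lower, so its dose labels may be too high.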

C[C@]12CC[C@@H]3c4ccc(O)cc4C[C@@H](CCCCCCCCC[S+]([O-])CCCC(F)(F)C(F)(F)F)[C@H]3[C@@H]1CC[C@@H]2O (stereo partly drawn) [Fulvestrant]
relative JC-1 red fluorescence
Conditions	8 h	16 h	24 h	32 h	40 h	48 h	56 h	64 h	72 h
10 µM, coculture fibroblast: C12385	0.91314 ± 0.00084	0.91903 ± 0.0005	0.91 ± 0.011	0.817 ± 0.015	0.767 ± 0.022	0.744 ± 0.033	0.701 ± 0.026	0.669 ± 0.028	0.653 ± 0.026
10 µM, coculture fibroblast: H6013	0.9336 ± 0.0071	0.945 ± 0.018	0.891 ± 0.031	0.893 ± 0.04	0.846 ± 0.027	0.858 ± 0.042	0.827 ± 0.05	0.809 ± 0.045	0.809 ± 0.033
10 µM, coculture fibroblast: H6019	0.9048 ± 0.0056	0.8746 ± 0.0076	0.828 ± 0.027	0.757 ± 0.039	0.724 ± 0.036	0.704 ± 0.05	0.668 ± 0.073	0.633 ± 0.095	0.618 ± 0.1
10 µM, coculture fibroblast: H6076	0.967 ± 0.011	0.774 ± 0.064	0.943 ± 0.018	0.9352 ± 0.0085	0.87 ± 0.011	0.857 ± 0.014	0.828 ± 0.021	0.837 ± 0.013	0.951 ± 0.018
10 µM, coculture fibroblast: H6231	0.834 ± 0.013	0.9666 ± 0.0052	0.92713 ± 0.00038	0.893 ± 0.028	0.843 ± 0.05	0.841 ± 0.054	0.819 ± 0.021	0.854 ± 0.061	0.855 ± 0.083
10 µM, coculture fibroblast: HADF	0.94 ± 0.029	0.945 ± 0.033	0.882 ± 0.041	0.904 ± 0.038	0.855 ± 0.055	0.843 ± 0.056	0.802 ± 0.055	0.79 ± 0.049	0.782 ± 0.038
10 µM, coculture fibroblast: HCFa	0.97 ± 0.018	0.936 ± 0.044	0.913 ± 0.039	0.928 ± 0.043	0.857 ± 0.046	0.877 ± 0.07	0.847 ± 0.073	0.84 ± 0.072	0.839 ± 0.071
10 µM, coculture fibroblast: HCPF	0.895 ± 0.012	0.9315 ± 0.0065	0.907 ± 0.031	0.9271 ± 0.0064	0.862 ± 0.013	0.825 ± 0.0091	0.7806 ± 0.0028	0.7688 ± 0.00085	0.7658 ± 0.0063
10 µM, coculture fibroblast: HHSteC	0.966 ± 0.012	0.98 ± 0.019	0.9013 ± 0.0077	0.898 ± 0.0068	0.846 ± 0.019	0.872 ± 0.015	0.824 ± 0.011	0.813 ± 0.022	0.799 ± 0.01
10 µM, coculture fibroblast: HMF	0.872 ± 0.0089	0.896 ± 0.093	0.93 ± 0.052	0.921 ± 0.044	0.866 ± 0.061	0.851 ± 0.082	0.806 ± 0.078	0.8 ± 0.09	0.778 ± 0.089
10 µM, coculture fibroblast: HPFa	0.784 ± 0.042	0.854 ± 0.081	0.968 ± 0.037	0.926 ± 0.029	0.871 ± 0.01	0.8798 ± 0.0015	0.808 ± 0.012	0.779 ± 0.01	0.714 ± 0.016
10 µM, coculture fibroblast: HUF	0.968 ± 0.0032	0.927 ± 0.042	0.845 ± 0.015	0.783 ± 0.013	0.737 ± 0.017	0.714 ± 0.026	0.675 ± 0.047	0.649 ± 0.028	0.626 ± 0.026
10 µM, coculture fibroblast: Hs5	0.868 ± 0.16	0.883 ± 0.075	0.921 ± 0.019	0.937 ± 0.075	0.888 ± 0.067	0.848 ± 0.08	0.794 ± 0.078	0.761 ± 0.079	0.771 ± 0.09
10 µM, coculture fibroblast: Hs27A	0.909 ± 0.013	0.909 ± 0.019	0.862 ± 0.011	0.8815 ± 0.005	0.8125 ± 0.00082	0.79786 ± 0.00043	0.78 ± 0.0082	0.7575 ± 0.0061	0.7816 ± 0.0068
10 µM, coculture fibroblast: Hs343T	0.921 ± 0.023	0.904 ± 0.1	0.923 ± 0.08	0.921 ± 0.041	0.869 ± 0.047	0.857 ± 0.058	0.801 ± 0.035	0.785 ± 0.052	0.79 ± 0.046
10 µM, coculture fibroblast: WS1	0.9155 ± 0.0029	0.899 ± 0.0096	0.826 ± 0.023	0.775 ± 0.037	0.723 ± 0.045	0.684 ± 0.05	0.65 ± 0.057	0.613 ± 0.043	0.597 ± 0.038
100 µM, coculture fibroblast: C12385	0.854 ± 0.2	0.917 ± 0.11	0.82 ± 0.14	0.875 ± 0.17	0.841 ± 0.19	0.84 ± 0.21	0.843 ± 0.17	0.855 ± 0.12	0.837 ± 0.14
100 µM, coculture fibroblast: H6013	0.766 ± 0.088	0.759 ± 0.03	0.87962 ± 0.00015	0.809 ± 0.076	0.819 ± 0.023	0.884 ± 0.064	0.756 ± 0.06	0.858 ± 0.059	0.809 ± 0.086
100 µM, coculture fibroblast: H6019	0.851 ± 0.072	0.898 ± 0.016	0.826 ± 0.02	0.773 ± 0.04	0.843 ± 0.098	0.808 ± 0.046	0.769 ± 0.014	0.7768 ± 0.0017	0.74 ± 0.05
100 µM, coculture fibroblast: H6076	0.876 ± 0.062	0.773 ± 0.057	0.7501 ± 0.0039	0.83 ± 0.076	0.801 ± 0.11	0.797 ± 0.098	0.79 ± 0.12	0.772 ± 0.019	0.902 ± 0.024
100 µM, coculture fibroblast: H6231	0.944 ± 0.036	0.839 ± 0.072	0.8899 ± 0.008	0.798 ± 0.13	0.9143 ± 0.006	0.815 ± 0.14	0.731 ± 0.01	0.814 ± 0.083	0.809 ± 0.073
100 µM, coculture fibroblast: HADF	0.956 ± 0.033	0.946 ± 0.033	0.894 ± 0.034	0.938 ± 0.013	0.879 ± 0.0021	0.8812 ± 0.0064	0.867 ± 0.032	0.881 ± 0.039	0.876 ± 0.039
100 µM, coculture fibroblast: HCFa	0.809 ± 0.066	0.801 ± 0.032	0.9064 ± 0.0019	0.814 ± 0.11	0.774 ± 0.11	0.758 ± 0.067	0.8 ± 0.098	0.806 ± 0.074	0.872 ± 0.018
100 µM, coculture fibroblast: HCPF	0.938 ± 0.032	0.861 ± 0.16	0.871 ± 0.064	0.895 ± 0.032	0.855 ± 0.013	0.849 ± 0.031	0.825 ± 0.039	0.8 ± 0.019	0.735 ± 0.048
100 µM, coculture fibroblast: HHSteC	0.815 ± 0.021	0.806 ± 0.089	0.866 ± 0.17	0.927 ± 0.099	0.732 ± 0.031	0.909 ± 0.04	0.856 ± 0.18	0.815 ± 0.064	0.837 ± 0.088
100 µM, coculture fibroblast: HMF	0.872 ± 0.17	0.797 ± 0.026	0.915 ± 0.024	0.843 ± 0.12	0.861 ± 0.022	0.797 ± 0.14	0.821 ± 0.046	0.763 ± 0.0077	0.722 ± 0.012
100 µM, coculture fibroblast: HPFa	0.804 ± 0.12	0.761 ± 0.022	0.796 ± 0.06	0.771 ± 0.088	0.885 ± 0.069	0.773 ± 0.0093	0.881 ± 0.033	0.808 ± 0.1	0.752 ± 0.045
100 µM, coculture fibroblast: HUF	0.979 ± 0.018	0.919 ± 0.04	0.893 ± 0.034	0.86 ± 0.055	0.83 ± 0.069	0.808 ± 0.071	0.775 ± 0.072	0.771 ± 0.077	0.762 ± 0.069
100 µM, coculture fibroblast: Hs5	0.721 ± 0.036	0.977 ± 0.014	0.969 ± 0.042	0.86 ± 0.068	0.891 ± 0.084	0.879 ± 0.1	0.856 ± 0.14	0.828 ± 0.15	0.858 ± 0.18
100 µM, coculture fibroblast: Hs27A	0.947 ± 0.052	0.89 ± 0.069	0.918 ± 0.055	0.864 ± 0.07	0.8562 ± 0.0069	0.922 ± 0.095	0.914 ± 0.11	0.904 ± 0.13	0.74 ± 0.033
100 µM, coculture fibroblast: Hs343T	0.934 ± 0.052	0.85 ± 0.051	0.767 ± 0.046	0.805 ± 0.1	0.799 ± 0.036	0.804 ± 0.1	0.769 ± 0.099	0.741 ± 0.036	0.789 ± 0.14
100 µM, coculture fibroblast: WS1	0.876 ± 0.062	0.797 ± 0.12	0.904 ± 0.098	0.886 ± 0.11	0.842 ± 0.14	0.813 ± 0.16	0.812 ± 0.17	0.797 ± 0.2	0.794 ± 0.22

From the supplement of paper PMC6078165
